From US20150197564A1
No constants are given. Whether binding was seen depends on the method and setting. Some entries that bind do so weakly or less than the wild type.

The chains behind the UniProt entries cited, without tags or fusion partners. Where a name states a change or a piece, a line headed by the entry shows the natural chain unless it says otherwise.
UniProt Q9Y5C1: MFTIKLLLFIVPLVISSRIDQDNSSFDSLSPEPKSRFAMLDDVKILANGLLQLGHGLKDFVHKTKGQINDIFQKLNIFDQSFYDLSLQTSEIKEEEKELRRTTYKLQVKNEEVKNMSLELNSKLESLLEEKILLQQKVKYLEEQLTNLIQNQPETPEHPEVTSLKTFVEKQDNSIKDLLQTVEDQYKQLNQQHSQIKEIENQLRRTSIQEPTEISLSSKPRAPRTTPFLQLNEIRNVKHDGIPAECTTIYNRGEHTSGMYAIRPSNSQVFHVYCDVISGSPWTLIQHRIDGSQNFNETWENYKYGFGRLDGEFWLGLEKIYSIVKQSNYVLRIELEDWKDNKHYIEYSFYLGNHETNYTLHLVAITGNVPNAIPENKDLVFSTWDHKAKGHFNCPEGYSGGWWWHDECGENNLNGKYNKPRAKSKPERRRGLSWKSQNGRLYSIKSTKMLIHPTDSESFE

Legend:
[1] = molecular target: hANGPTL3(17-460)-His (human) (UniProt Q9Y5C1); assay: SPR Biacore, 25C, pH 7.4
[2] = molecular target: hANGPTL3(17-169)-mFc (human); assay: SPR Biacore, 25C, pH 7.4

B1: H4H1282P (antibody, IgG4, V domains shown)
VH: EVQLVQSGGGVVQPGRSLRLSCAASGFTFSNYGMHWVRQAPGKGLEWVAVVWYDGDNKYYADSVKGRFTISRDNSKNTLYLQMNSLRAEDTAVYYCARDIITSRPTLDYWGQGTLVTVSS
VL: DIQLTQSPSFLSASVGDRVTITCWASQGINSYLAWYQQKPGKAPKLLIYPASTLQSGVPSRFSGSGSGTEFTLTISSLQPVDFATYYCQQLNSYPLTFGGGTKVEIKR
binding [1]: binds | binding [2]: binds
